This passage reports binding signal results from publication PMC7819943, “Rice protein-binding microarrays: a tool to detect cis-acting elements near promoter regions in rice”.

Amino acid sequences for entries named in this document (tags omitted).
UniProt Q0JBA9, entry or part of it: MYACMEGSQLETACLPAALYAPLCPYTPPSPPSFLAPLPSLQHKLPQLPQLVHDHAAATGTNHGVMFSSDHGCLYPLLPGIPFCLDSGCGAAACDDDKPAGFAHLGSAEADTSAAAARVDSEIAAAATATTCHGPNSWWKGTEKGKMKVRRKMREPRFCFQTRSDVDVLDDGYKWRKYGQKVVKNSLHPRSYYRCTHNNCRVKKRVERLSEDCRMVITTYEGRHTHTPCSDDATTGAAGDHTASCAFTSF

Some of the results follow.

This assay has as its target OsWRKY34 (Oryza sativa, UniProt Q0JBA9 1-250). The assay can be described thus: protein-binding microarray (RPBM); PBS, 2% BSA, 51.3 ng/ul salmon testes DNA, 50 uM zinc acetate, 200 nM TF, 25 C, 1 h; high values mean tight binding. As to conditions: protein: recombinant; tags: N-terminal polyhistidine and DsRed monomer fusion (pET32a); label: CyDye5-dUTP incorporated in the synthesized complementary strand; 3' TTTTT single-stranded linker to array surface; dsDNA, one strand shown. The method in brief: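 Binding signal here means per-feature fluorescence intensity in arbitrary units. The values were read on an Axon 4000B scanner after a custom Agilent array, double-stranded by primer extension with Cy5-dUTP, was incubated with 200 nM protein at 25 °C for 1 h in PBS with 2% BSA, salmon testes DNA and 50 µM zinc acetate, then washed. The proteins were transcription factors with an N-terminal polyhistidine tag and DsRed, expressed in E. coli BL21-CodonPlus and purified on Ni–NTA.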
Regarding “GATGCGCGCGAACGGAGACGACGGGGTAGGGTGGGGAGGGCGGAGTCACCTAGTGCAG”, the binding signal was 12300 fluorescence intensity (a.u.).
The value for “CATTATCGTCCCATGTGTTGTCTGCATTGCGGCATGCGTTCGGAGTCACCTAGTGCAG” was 9230 fluorescence intensity (a.u.); that for “GAGGCTGTTGGAGTTGCTTGGAGAGTGGTTTGATAGAGGCCGGAGTCACCTAGTGCAG” was 8100 fluorescence intensity (a.u.).
With “AGATAGATAGTCCCTTTGTTTTTGCCTCTTGATCTGTTACCGGAGTCACCTAGTGCAG”, the binding signal is 9350 fluorescence intensity (a.u.).
The value for “CATTTCTTTGACTCTTCGTCAATATAATATTTACGTGTCCCGGAGTCACCTAGTGCAG” was 9950 fluorescence intensity (a.u.); that for “TTCGTTTGCTCTGCTCTTTCTTATGCAAGATGTGTTTAATCGGAGTCACCTAGTGCAG” was 9840 fluorescence intensity (a.u.); that for “ACACTTTTATGTCTACCCACTCCCCTAGCTTGCATCCCAACGGAGTCACCTAGTGCAG” was 8280 fluorescence intensity (a.u.).
Turning to “ATGAGTGACTAGTATATGCATGTTGATCGATCCTCCGGCGCGGAGTCACCTAGTGCAG”, the binding signal was 8100 fluorescence intensity (a.u.).
For “GTGCGTTTGCTGACCTCGCGATCTCCGCTACCACCACCAGCGGAGTCACCTAGTGCAG”, the binding signal is 8750 fluorescence intensity (a.u.).
Then “ACCGCGACCTCTCCCGCCTCGCGTCCACATTGTGTGACCTCGGAGTCACCTAGTGCAG”, with 9520 fluorescence intensity (a.u.); and “CGTTTTTGCGTATCTTCCTAATCTCCTCAATCACCTTATCCGGAGTCACCTAGTGCAG”, with 11400 fluorescence intensity (a.u.).
For the sequence “TGCCGCCGCCCGCCGTGCTTAGGGGTATTTTCATTATTTTCGGAGTCACCTAGTGCAG”, the binding signal was 9090 fluorescence intensity (a.u.).
On to “CTAGCTATAGCATCAGTGTGCGCCAATGTCCTATATTATGCGGAGTCACCTAGTGCAG”, for which the binding signal is 8440 fluorescence intensity (a.u.).
The value for “GCCATCCGAGCCCAACTCTACCCAGGCCCATCTCAGCCCACGGAGTCACCTAGTGCAG” was 8200 fluorescence intensity (a.u.); that for “TGCCACTACTTGATGCTCTTAGGTTCTGTCCATCTTCACCCGGAGTCACCTAGTGCAG” was 8900 fluorescence intensity (a.u.).
As for “TATTAGCTTAGGTGTTGGTCTTCTCTCGTAGTCGGGTCTTCGGAGTCACCTAGTGCAG”, the binding signal is 9900 fluorescence intensity (a.u.).
With “CGTTGTGGTGGTGGTGGTGGTGAGCGCGTGGGCGCGTAAACGGAGTCACCTAGTGCAG”, the binding signal was 9060 fluorescence intensity (a.u.).
On to “TCTCTGCACGCTGCATTCCAACACGAAAGCCAAGCATTACCGGAGTCACCTAGTGCAG”, for which the binding signal is 8080 fluorescence intensity (a.u.).
The value for “GAGTGTACTGCCTTTATCTGCTGTCTGATTGCTGCATTTCCGGAGTCACCTAGTGCAG” was 9700 fluorescence intensity (a.u.).
Then “AGCACGTTTGACTTCCCTCCCCTCACCCTCCACATGCTGGCGGAGTCACCTAGTGCAG”, with 9210 fluorescence intensity (a.u.); and “TCCTTGTCTTCTCATGTTGCACCACGCCGCAGCTTAGGAGCGGAGTCACCTAGTGCAG”, with 12700 fluorescence intensity (a.u.).
The value for “AGCGCGCCGGCCTCTCCTTCCCCGTAGCCGCTCGGCGCGCCGGAGTCACCTAGTGCAG” was 8810 fluorescence intensity (a.u.).
Turning to “TTAAGTATATTGGTTTTGTAGGTTGAGTGACGCGCTATTTCGGAGTCACCTAGTGCAG”, the binding signal is 10400 fluorescence intensity (a.u.).
As for “GCATTGCCCCTCGCCTGTCGCTGCCTGCGCCTTGTCCAGCCGGAGTCACCTAGTGCAG”, the binding signal was 8640 fluorescence intensity (a.u.).
The value for “GGGCGAGTGGAGGAGGAGGGGTAGTCTCGTCATTTGCCACCGGAGTCACCTAGTGCAG” was 10900 fluorescence intensity (a.u.); that for “CTCGCCTTTTTTTAAGCTCTTTTCTATTCACGTGCCTACGCGGAGTCACCTAGTGCAG” was 9000 fluorescence intensity (a.u.); that for “GTAGACCGCTGGGCTGGGCTGGGCTGCGCTGGGTTGGGAGCGGAGTCACCTAGTGCAG” was 8740 fluorescence intensity (a.u.).
Consider “ACAAAATATTCTTTTGCATTGAAGCCGACCGTTTTATTTTCGGAGTCACCTAGTGCAG”, for which the binding signal is 8560 fluorescence intensity (a.u.).
As for “TCCTCCGATCCCAATCCAACGCTCCAACCCCACGCTCCCACGGAGTCACCTAGTGCAG”, the binding signal was 8570 fluorescence intensity (a.u.).
The value for “GCGAGCTCGCCGTCGTGGCGACGACCACATCTGCAGCTACCGGAGTCACCTAGTGCAG” was 8240 fluorescence intensity (a.u.).
“GCTTGCTCTGAATAGTTGAATATTGTCCCTCTGTCTCGATCGGAGTCACCTAGTGCAG”: the binding signal is 8850 fluorescence intensity (a.u.).
Then “GTCAGTCCTTCAGTCAGTCAGTCACCGTGCCCCAGACGAACGGAGTCACCTAGTGCAG”, with 8540 fluorescence intensity (a.u.); and “TATTTTCTGTAATTTTATCCATGTTTTGTGTCTGAGTTTCCGGAGTCACCTAGTGCAG”, with 9350 fluorescence intensity (a.u.).
“TCACCGCTGCTCGATTCCTTTACTCTTATACCTTCGCCACCGGAGTCACCTAGTGCAG”: the binding signal was 11500 fluorescence intensity (a.u.).
Regarding “ATCGTCCGTCCGTGTTCTTGTAATCTAGCTCGCCACCTCGCGGAGTCACCTAGTGCAG”, the binding signal is 12400 fluorescence intensity (a.u.).
Take “ATTTTTCCCTCACTGTCTACTATTTTTCATTTTTTATATGCGGAGTCACCTAGTGCAG”: the binding signal was 8940 fluorescence intensity (a.u.).
Then “ATTATTTGGTTGGTAGTAGTATCGGTGGCCGACTTAAACTCGGAGTCACCTAGTGCAG”, with 9520 fluorescence intensity (a.u.); and “TCGTTTGATTAACCAGGAATTCCTCGTCTGCCTTAATGGTCGGAGTCACCTAGTGCAG”, with 8280 fluorescence intensity (a.u.).
With “CCGTCCCTCTCACTCTCCCGTGGACCGTGCGCGCTCTAGCCGGAGTCACCTAGTGCAG”, the binding signal is 8500 fluorescence intensity (a.u.).
Then “CTTTAGTCCATCTACCGAGCCAATCACCTATTATATTTGTCGGAGTCACCTAGTGCAG”, with 9360 fluorescence intensity (a.u.).
With “CTTTCCGTCGCGTCTCGTCTTCTCATGGTTGCAACTCTCCCGGAGTCACCTAGTGCAG”, the binding signal is 18100 fluorescence intensity (a.u.).
On to “ACCTTCTTGAGCGCCACGATCTTGCCCGTCACCGTGTCCCCGGAGTCACCTAGTGCAG”, for which the binding signal was 9750 fluorescence intensity (a.u.).
